Among the data in ChEMBL document CHEMBL1629416, “Developing dual functional allosteric modulators of GABA(A) receptors” (Bioorg Med Chem, 2010) are EC50 values, retold here.

This experiment addresses T1, GABA-A receptor; alpha-3/beta-3/gamma-2 (Homo sapiens, UniProt P18507+P28472+P34903).
T1 sequence (P18507 whole entry): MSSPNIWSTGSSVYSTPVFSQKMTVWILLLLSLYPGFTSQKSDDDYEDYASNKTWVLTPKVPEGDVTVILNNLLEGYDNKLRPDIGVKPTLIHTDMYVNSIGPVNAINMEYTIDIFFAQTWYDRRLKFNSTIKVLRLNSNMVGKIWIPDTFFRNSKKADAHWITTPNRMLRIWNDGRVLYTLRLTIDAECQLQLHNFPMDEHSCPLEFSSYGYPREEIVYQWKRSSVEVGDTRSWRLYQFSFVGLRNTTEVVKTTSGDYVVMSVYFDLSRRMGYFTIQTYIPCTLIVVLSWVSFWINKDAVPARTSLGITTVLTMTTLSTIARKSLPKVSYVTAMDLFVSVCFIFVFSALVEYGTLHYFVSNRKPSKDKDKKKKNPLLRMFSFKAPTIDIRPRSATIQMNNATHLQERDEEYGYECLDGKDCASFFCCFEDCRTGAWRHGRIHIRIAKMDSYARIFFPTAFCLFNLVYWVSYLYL
T1 sequence (P28472 whole entry): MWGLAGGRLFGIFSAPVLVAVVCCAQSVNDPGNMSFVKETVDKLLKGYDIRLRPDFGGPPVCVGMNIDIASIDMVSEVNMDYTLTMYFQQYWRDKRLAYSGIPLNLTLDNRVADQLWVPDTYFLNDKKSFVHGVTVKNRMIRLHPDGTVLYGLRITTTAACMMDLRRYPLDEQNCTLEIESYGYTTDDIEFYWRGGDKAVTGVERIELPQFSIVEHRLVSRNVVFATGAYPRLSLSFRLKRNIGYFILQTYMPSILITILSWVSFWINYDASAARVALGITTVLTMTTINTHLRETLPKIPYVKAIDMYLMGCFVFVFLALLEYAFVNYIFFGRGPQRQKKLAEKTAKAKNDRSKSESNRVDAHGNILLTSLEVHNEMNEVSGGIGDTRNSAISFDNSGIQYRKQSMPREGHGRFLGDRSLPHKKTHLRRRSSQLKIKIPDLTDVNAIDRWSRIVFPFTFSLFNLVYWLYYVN
T1 sequence (P34903 whole entry): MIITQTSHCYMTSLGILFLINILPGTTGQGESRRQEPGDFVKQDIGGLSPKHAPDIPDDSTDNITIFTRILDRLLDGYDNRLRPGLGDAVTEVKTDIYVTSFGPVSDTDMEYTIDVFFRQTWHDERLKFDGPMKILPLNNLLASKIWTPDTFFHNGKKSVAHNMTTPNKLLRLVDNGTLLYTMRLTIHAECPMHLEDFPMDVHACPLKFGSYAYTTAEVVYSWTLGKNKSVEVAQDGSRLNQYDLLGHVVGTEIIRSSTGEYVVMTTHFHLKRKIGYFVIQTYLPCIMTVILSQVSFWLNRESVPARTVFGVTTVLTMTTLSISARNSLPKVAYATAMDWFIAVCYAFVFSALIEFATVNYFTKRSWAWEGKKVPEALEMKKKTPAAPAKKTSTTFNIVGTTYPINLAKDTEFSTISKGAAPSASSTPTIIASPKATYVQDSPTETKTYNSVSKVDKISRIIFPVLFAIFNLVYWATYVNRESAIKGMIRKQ
As to the kind of experiment: Binding affinity to human alpha3beta3gamma2 GABA receptor expressed in Xenopus laevis oocytes. The experiment is classed as cell-based, Oocyte.

By EC50 is commonly meant the concentration that produces a half-maximal response. `CN1C(=O)CN=C(c2ccccc2)c2cc(Cl)ccc21` [DIAZEPAM] yielded an EC50 of 131 nM.
